Measurements as given in PMC7862700.
The entries are a selection whose mix differs from that of the whole data set. For part of these data: At the low end of the ranking, values are background and their order means little. The list shows a part of the results. For part of these data: Construct or isoform of the protein are uncertain.

Biological target: T1, GABPA (UniProt Q06546)
T1 sequence: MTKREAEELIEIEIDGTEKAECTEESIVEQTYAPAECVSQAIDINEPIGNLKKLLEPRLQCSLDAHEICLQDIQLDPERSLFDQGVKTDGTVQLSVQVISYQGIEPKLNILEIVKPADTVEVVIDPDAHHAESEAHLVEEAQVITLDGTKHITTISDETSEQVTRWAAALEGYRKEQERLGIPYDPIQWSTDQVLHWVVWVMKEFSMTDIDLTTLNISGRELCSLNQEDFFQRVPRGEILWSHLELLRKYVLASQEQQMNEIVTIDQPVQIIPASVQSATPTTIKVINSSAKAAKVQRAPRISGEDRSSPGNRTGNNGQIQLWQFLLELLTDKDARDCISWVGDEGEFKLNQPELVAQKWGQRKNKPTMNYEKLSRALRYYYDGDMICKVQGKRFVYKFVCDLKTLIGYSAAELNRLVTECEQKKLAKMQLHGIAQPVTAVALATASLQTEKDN
Experiment: DAPPL (digital affinity profiling via proximity ligation, sequencing)
Conditions: 10 mM Tris-HCl pH 7.5, 50 mM NaCl, 1 mM DTT, 4% glycerol, room temperature, 30 min; GST-TFs on glutathione beads, 16-mer random dsDNA library, 0.1% …; high values mean tight binding; double strand, one strand shown; scale: fold enrichment (6-mer frequency, TF over GST control)

| Sequence | binding signal |
| --- | --- |
| ACAATT | 1.15 |
| ATACAC | 1.25 |
| GGATCT | 1.02 |
| ATTGAG | 0.971 |
| TTATTA | 1.04 |

Biological target: T2, ETS1 (UniProt P14921)
T2 sequence: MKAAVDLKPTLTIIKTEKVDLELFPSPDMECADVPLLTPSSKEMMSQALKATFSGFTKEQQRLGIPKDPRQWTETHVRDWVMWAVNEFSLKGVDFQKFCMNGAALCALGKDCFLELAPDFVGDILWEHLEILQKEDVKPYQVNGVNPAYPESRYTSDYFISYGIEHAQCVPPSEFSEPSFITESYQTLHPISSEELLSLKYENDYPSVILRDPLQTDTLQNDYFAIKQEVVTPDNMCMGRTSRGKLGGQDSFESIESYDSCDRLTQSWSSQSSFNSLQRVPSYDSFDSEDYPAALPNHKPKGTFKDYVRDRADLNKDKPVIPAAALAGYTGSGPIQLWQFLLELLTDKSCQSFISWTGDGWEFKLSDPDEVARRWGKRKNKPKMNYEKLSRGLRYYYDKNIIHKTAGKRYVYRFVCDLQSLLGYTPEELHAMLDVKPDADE
Experiment: as above
Conditions: 10 mM Tris-HCl pH 7.5, 50 mM NaCl, 1 mM DTT, 4% glycerol, room temperature, 30 min; GST-TFs on glutathione beads, 16-mer random dsDNA library, 0.1% …; high values mean tight binding; double strand, one strand shown; scale: fold enrichment (6-mer frequency, TF over GST control)

| Sequence | binding signal |
| --- | --- |
| TGACTA | 1.13 |
| TTTGAT | 1.29 |
| ACAATT | 1.29 |
| CGGATG | 1.56 |
| TCCACC | 1.21 |
| TAGAAA | 1.07 |
| AGAATA | 1.02 |
| ATGGCG | 1.04 |
| TCCTTA | 1.7 |
| ATACAC | 1.19 |
| GCAAAT | 1.04 |
| GCGTCC | 1.09 |
| ACTCGT | 1.18 |
| AACTCA | 1.25 |
| TATAAT | 1.28 |
| TGATTC | 1.07 |
| TTCTCT | 1.31 |
| TATATC | 1.68 |
| ATTTGT | 1.35 |
| ACTGTA | 0.983 |

| Sequence | binding signal |
| --- | --- |
| GTTTTG | 1.18 |
| ATAAGT | 1.03 |
| CGACAT | 1.27 |
| CGACGC | 1.12 |
| TCAAAG | 1.11 |
| TTTCAT | 1.17 |
| CTCGGC | 1.34 |
| TTTCGT | 1.35 |
| ACCTTT | 1.53 |
| TCGTCC | 1.08 |
| GTTATT | 1.25 |
| GGATCT | 0.97 |
| GGGAAA | 0.992 |
| TTACCT | 1.35 |
| AACCCG | 1.47 |
| CTACAG | 0.902 |
| ATTGAG | 1.05 |
| TCCCAT | 1.37 |
| TTATTA | 1.26 |
| GGAACT | 1.84 |
